Binding data for one molecule are collected here from patent US20070202593A1.

By UniProt entry, the sequences of proteins in these tests, tags left out. Residues count along the entry.
UniProt Q6UVK1, residues 30-2322: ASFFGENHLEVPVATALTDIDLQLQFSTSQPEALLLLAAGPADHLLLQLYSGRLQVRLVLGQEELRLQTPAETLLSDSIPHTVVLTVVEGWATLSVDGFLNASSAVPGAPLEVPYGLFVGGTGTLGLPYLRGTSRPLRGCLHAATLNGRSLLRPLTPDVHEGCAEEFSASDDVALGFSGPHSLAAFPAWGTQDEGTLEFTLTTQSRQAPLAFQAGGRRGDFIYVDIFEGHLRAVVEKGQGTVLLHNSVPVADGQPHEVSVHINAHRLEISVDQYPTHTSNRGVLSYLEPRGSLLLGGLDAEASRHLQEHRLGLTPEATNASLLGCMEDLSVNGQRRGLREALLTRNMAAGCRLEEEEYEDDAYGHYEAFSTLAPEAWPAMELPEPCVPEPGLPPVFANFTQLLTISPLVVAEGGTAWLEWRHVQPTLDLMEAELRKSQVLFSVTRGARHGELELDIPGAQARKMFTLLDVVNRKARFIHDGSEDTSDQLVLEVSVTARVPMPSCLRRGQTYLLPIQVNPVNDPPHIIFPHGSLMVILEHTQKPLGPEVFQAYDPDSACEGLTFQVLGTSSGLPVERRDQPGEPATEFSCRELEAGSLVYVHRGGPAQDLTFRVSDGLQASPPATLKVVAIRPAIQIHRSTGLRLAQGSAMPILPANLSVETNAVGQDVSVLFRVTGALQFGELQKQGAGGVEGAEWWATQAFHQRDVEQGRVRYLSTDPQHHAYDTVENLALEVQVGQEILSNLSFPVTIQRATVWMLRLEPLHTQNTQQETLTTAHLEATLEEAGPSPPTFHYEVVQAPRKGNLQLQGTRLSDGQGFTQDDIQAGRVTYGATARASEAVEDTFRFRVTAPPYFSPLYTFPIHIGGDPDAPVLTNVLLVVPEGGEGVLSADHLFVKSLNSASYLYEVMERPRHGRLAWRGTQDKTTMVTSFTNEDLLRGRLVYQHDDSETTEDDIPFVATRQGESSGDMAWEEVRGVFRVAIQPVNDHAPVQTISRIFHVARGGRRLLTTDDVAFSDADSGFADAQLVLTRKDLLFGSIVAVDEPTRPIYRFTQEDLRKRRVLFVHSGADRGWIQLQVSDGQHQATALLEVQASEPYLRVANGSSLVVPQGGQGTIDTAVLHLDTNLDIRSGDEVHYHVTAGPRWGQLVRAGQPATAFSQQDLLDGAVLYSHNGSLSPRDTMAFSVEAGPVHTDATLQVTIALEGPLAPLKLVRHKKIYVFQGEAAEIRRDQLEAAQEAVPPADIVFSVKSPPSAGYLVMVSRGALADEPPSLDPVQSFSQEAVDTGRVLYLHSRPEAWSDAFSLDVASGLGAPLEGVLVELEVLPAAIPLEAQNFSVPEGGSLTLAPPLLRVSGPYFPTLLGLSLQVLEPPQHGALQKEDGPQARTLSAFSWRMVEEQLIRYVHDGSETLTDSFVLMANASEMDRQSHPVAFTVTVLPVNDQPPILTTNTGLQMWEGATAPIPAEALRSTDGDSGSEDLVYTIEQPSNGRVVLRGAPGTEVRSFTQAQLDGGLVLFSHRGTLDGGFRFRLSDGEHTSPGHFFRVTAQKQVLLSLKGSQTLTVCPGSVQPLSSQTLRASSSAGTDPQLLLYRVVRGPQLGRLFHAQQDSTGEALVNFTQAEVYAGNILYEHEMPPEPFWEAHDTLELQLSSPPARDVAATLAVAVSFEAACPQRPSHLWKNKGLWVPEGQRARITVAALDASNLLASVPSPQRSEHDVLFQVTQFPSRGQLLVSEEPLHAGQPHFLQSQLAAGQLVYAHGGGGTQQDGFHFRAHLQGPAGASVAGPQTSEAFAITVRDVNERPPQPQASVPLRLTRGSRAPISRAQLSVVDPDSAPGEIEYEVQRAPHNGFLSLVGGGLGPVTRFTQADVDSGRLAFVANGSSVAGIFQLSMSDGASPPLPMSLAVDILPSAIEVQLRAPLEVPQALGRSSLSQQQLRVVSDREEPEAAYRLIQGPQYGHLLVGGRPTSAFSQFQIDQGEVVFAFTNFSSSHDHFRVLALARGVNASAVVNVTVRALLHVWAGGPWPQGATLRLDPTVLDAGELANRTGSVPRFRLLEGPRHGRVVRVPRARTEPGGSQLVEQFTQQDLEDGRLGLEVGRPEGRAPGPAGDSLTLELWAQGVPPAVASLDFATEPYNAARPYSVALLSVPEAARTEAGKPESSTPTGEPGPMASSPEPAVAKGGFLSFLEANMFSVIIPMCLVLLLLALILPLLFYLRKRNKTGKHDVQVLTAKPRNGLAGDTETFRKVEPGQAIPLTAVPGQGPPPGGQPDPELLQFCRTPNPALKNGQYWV

These are yes or no findings as the source states them, for the method shown. Some results given as binding are weak or reduced against the parent protein; the word gives no strength. Sequences can lack the tags named with a protein.

The target of this assay is gp240 antigen (human) (UniProt Q6UVK1). Kind of assay: uptake into gp240-positive A375-M and AAB-527 melanoma cells (50-200 nM, 2 h), acid strip of the surface, Western blot of lysates with anti-IkB antibody; 63-kDa band absent in gp240-negative TXM-1 cells.

B1: IkBα/scFvMEL fusion protein (protein)
chain: GSFQAAERPQEWAMEGPRDGLKKERLLDDRHDSGLDSMKDEEYEQMVKELQEIRLEPQEVPRGSEPWKQQLTEDGDSFLHLAIIHEEKALTMEVIRQVKGDLAFLNFQNNLQQTPLHLAVITNQPEIAEALLGAGCDPELRDFRGNTPLHLACEQGCLASVGVLTQSCTTPHLHSILKATNYNGHTCLHLASIHGYLGIVELLVSLGADVNAQEPCNGRTALHLAVDLQNPDLVSLLLKCGADVNRVTYQGYSPYQLTWGRPSTRIQQQLGQLTLENLQMLPESEDEESYDTESEFTEFTEDELPYDDCVFGGQRLTLGGGGSTDIVMTQSQKFMSTSVGDRVSVTCKASQNVDTNVAWYQQKPGQSPEPLLFSASYRYTGVPDRFTGSGSGTDFTLTISNVQSEDLAEYFCQQYNSYPLTFGGGTKLEIKGSTSGSGKPGSGEGSTKGEVKVEESGGGLVQPGGSMKLSCVVSGFTFGNYWMNWVRQSPEKGLEWIAEIRLKSNNFARYYAESVKGRFTISRDDSKSSVYLQMINLRAEDTGIYYCTSYGNYVGHYFDHWGQGTTLTVSS
Regarding B1, the binding entry is given as “binds”.
